The test system of the assay is L1210 leukemia ip in BDF1 mice, survival T/C. In words: NCI In Vivo Anticancer Drug Screen. Data for tumor model L1210 Leukemia (intraperitoneal) in B6D2F1 (BDF1) mice. Particulars: T/C endpoint: mean survival time, higher T/C = longer survival.
Setting [1] is: dose: 100.0 mg/kg/injection, schedule: Q01DX009 (ip), vehicle: Klucel (hydroxypropylcellulose) (HPC).
Where [2] appears, read: dose: 400.0 mg/kg/injection, schedule: Q01DX001 (ip), vehicle: carboxymethylcellulose (CMC).
Setting [3] is: dose: 100.0 mg/kg/injection, schedule: Q04DX003 (ip), vehicle: saline.
[4] abbreviates: dose: 200.0 mg/kg/injection, schedule: Q04DX003 (ip), vehicle: saline.
Setting [5] is: dose: 400.0 mg/kg/injection, schedule: Q04DX003 (ip), vehicle: Klucel (hydroxypropylcellulose) (HPC).
[6] abbreviates: dose: 200.0 mg/kg/injection, schedule: Q01DX001 (ip), vehicle: saline.
Where [7] appears, read: dose: 400.0 mg/kg/injection, schedule: Q01DX001 (ip), vehicle: saline.
Where [8] appears, read: dose: 400.0 mg/kg/injection, schedule: Q01DX001 (ip), vehicle: other.

The structures appear in SMILES notation. The list is a part of this screen's results and no random one: it is rich in T/C values a quarter to a half above the control, in often repeated tests (any T/C) and in doses without a T/C. Other doses and runs of a compound stand elsewhere. T/C is the treated group as % of the vehicle group. Some doses have a count of surviving animals in place of a T/C: the source files T/C as zero there, which appears to mark a toxic dose or a test without result, not a measured value. Some doses without a T/C left all or most animals alive at the check, yet need not have been tolerated: the source hardly ever lists a survival T/C far under the control, and the zero likely stands for such cases as well. Counts of survivors are from the toxicity check (mostly the fifth day) where no day follows; animals may have died later. Schedules are NCI's codes, taken here to give the interval after Q, in days (D) or hours (H), and the number of doses after X. Where survival is the endpoint, this PubChem deposit counts one and a half times the control or more as active, and values a quarter to a half above the control carry no call in these data; other NCI protocols may use other cut-offs.

Turning to `CN(C)C1CCCCC1`, the survivor count under setting [1] is recorded as 6 of 6; the survivor count (dose: 200.0 mg/kg/injection, schedule: Q01DX009 (ip), vehicle: Klucel (hydroxypropylcellulose) (HPC)) is on record as 0 of 6; the survivor count (dose: 400.0 mg/kg/injection, schedule: Q01DX009 (ip), vehicle: Klucel (hydroxypropylcellulose) (HPC)) is given as 0 of 6.
On to `CCCN=Cc1ccccc1O.CCCN=Cc1ccccc1O.[Cu]`, for which the survivor count by setting is: (dose: 75.0 mg/kg/injection, schedule: Q01DX001 (ip), vehicle: other) 0 of 6; (dose: 150.0 mg/kg/injection, schedule: Q01DX001 (ip), vehicle: other) 1 of 6; (dose: 300.0 mg/kg/injection, schedule: Q01DX001 (ip), vehicle: other) 0 of 6.
On to `CC(C)c1cccc2ccccc12`, for which, under “dose: 400.0 mg/kg/injection, schedule: Q04DX003 (ip), vehicle: acetone”, the survivor count was 5 of 6.
Turning to `O=NN(CCCl)C(=O)NC(C(=O)O)C1CCCCC1` (stereo not given), the T/C (dose: 18.0 mg/kg/injection, schedule: Q01DX001 (ip), vehicle: saline with Tween-80) was 143 % of control. In addition, the survivor count (dose: 200.0 mg/kg/injection, schedule: Q01DX001 (ip), vehicle: saline with Tween-80) is recorded as 10 of 10 and the survivor count (dose: 300.0 mg/kg/injection, schedule: Q01DX001 (ip), vehicle: saline with Tween-80) was 9 of 10.
`CCCN(CCC)CCNCC(Cc1ccccc1)c1ccccc1` (stereo not given): the survivor count (dose: 200.0 mg/kg/injection, schedule: Q04DX002 (ip), vehicle: Klucel (hydroxypropylcellulose) (HPC)) is given as 0 of 3.
In the case of `O=C(O)c1ccc(S(=O)(=O)O)cc1C(=O)O`, the survivor count (dose: 400.0 mg/kg/injection, schedule: Q01DX009 (ip), vehicle: saline with Tween-80) is reported as 6 of 6.
Take `Oc1ccc(F)c2cccnc12`: the survivor count is 2 of 4 (dose: 100.0 mg/kg/injection, schedule: Q01DX001 (ip), vehicle: carboxymethylcellulose (CMC)); 0 of 4 (dose: 200.0 mg/kg/injection, schedule: Q01DX001 (ip), vehicle: carboxymethylcellulose (CMC)); 0 of 4 under setting [2].
Turning to `c1ccc2c(c1)CCc1ccccc1CN(CCN1CCCC1)C2`, the survivor count (dose: 50.0 mg/kg/injection, schedule: Q01DX009 (ip), vehicle: Klucel (hydroxypropylcellulose) (HPC)) is reported as 6 of 6.
`CN(C=O)C(=S)[S-].CN(C=O)C(=S)[S-].CN(C=O)C(=S)[S-].O=C(Nc1ccc(S(=O)(=O)Nc2ccc(N=Nc3ccc4nc([S-])sc4c3)cc2)cc1)C(N1CC1)(N1CC1)N1CC1.[Pd]`: the survivor count runs as follows: (dose: 50.0 mg/kg/injection, schedule: Q04DX003 (ip), vehicle: saline) 3 of 6; under setting [3], 0 of 6; under setting [4], 0 of 6; (dose: 400.0 mg/kg/injection, schedule: Q04DX003 (ip), vehicle: saline) 0 of 6.
With `Nc1nc2[nH]cnc(=S)c2[nH]1`, the survivor count (dose: 150.0 mg/kg/injection, schedule: Q01DX001 (ip), vehicle: saline) is listed as 0 of 6 and the survivor count (dose: 300.0 mg/kg/injection, schedule: Q01DX001 (ip), vehicle: saline) was 2 of 6.
Turning to `Cc1ccccc1[P+](Cc1ccccc1)(c1ccccc1)c1ccccc1`, the survivor count reads like this: (dose: 40.0 mg/kg/injection, schedule: Q01DX001 (ip), vehicle: saline) 0 of 6; (dose: 80.0 mg/kg/injection, schedule: Q01DX001 (ip), vehicle: saline) 0 of 6.
Turning to `CC1(C)C(OC=O)C(C)(C)C1OC=O` (stereo not given), under setting [5], the survivor count is recorded as 5 of 6.
Consider `Cc1nnc(Cl)c2ccccc12`, for which the survivor count is on record as 0 of 6 under setting [6] and 2 of 6 under setting [7].
Consider `Nc1ccc(-c2ccccc2)cc1Br`, for which the survivor count was 2 of 6 (dose: 60.0 mg/kg/injection, schedule: Q01DX001 (ip), vehicle: carboxymethylcellulose (CMC)); 0 of 6 (dose: 75.0 mg/kg/injection, schedule: Q01DX001 (ip), vehicle: carboxymethylcellulose (CMC)); 0 of 6 (dose: 150.0 mg/kg/injection, schedule: Q01DX001 (ip), vehicle: carboxymethylcellulose (CMC)); 0 of 6 (dose: 300.0 mg/kg/injection, schedule: Q01DX001 (ip), vehicle: carboxymethylcellulose (CMC)).
For `O=[N+]([O-])c1cc(S(=O)(=O)F)ccc1O`, the survivor count (dose: 100.0 mg/kg/injection, schedule: Q01DX001 (ip), vehicle: other) is listed as 1 of 4; the survivor count (dose: 200.0 mg/kg/injection, schedule: Q01DX001 (ip), vehicle: other) was 0 of 4; the survivor count under setting [8] was 0 of 4.
With `N=C(N)S/C=C/C(=O)O`, the survivor count was 0 of 3 (dose: 200.0 mg/kg/injection, schedule: Q04DX002 (ip), vehicle: saline with Tween-80) and 0 of 3 (dose: 400.0 mg/kg/injection, schedule: Q04DX002 (ip), vehicle: saline with Tween-80).
Take `CCOC(=O)NC(=S)NN`: the survivor count (dose: 400.0 mg/kg/injection, schedule: Q01DX009 (ip), vehicle: saline) is recorded as 3 of 6.
For the compound `CCN(CC)CCN=Cc1ccccc1OC`, the survivor count under setting [7] is on record as 2 of 4.
On to `O=C(CI)Nc1cccc(NC(=O)C(=O)O)c1`, for which the survivor count (dose: 80.0 mg/kg/injection, schedule: Q04DX003 (ip), vehicle: Klucel (hydroxypropylcellulose) (HPC)) was 0 of 6; the survivor count (dose: 100.0 mg/kg/injection, schedule: Q04DX003 (ip), vehicle: Klucel (hydroxypropylcellulose) (HPC)) is 0 of 6; the survivor count (dose: 200.0 mg/kg/injection, schedule: Q04DX003 (ip), vehicle: Klucel (hydroxypropylcellulose) (HPC)) is on record as 0 of 6; the survivor count under setting [5] is recorded as 0 of 6.
`O=S(=O)(O)CNc1cc(Cl)cc(Cl)c1`: the survivor count under setting [1] is 6 of 6.
As for `S=c1[nH]nc(NC2CCCCC2)s1`, the survivor count was 2 of 6 (dose: 200.0 mg/kg/injection, schedule: Q01DX009 (ip), vehicle: other) and 0 of 6 (dose: 400.0 mg/kg/injection, schedule: Q01DX009 (ip), vehicle: other).
Take `Cn1c(=O)c2c(nc(C3CC3)n2C)n(C)c1=O`: the survivor count under setting [8] is 1 of 4.
For `O=[N+]([O-])c1cccc(Cl)c1O`, where the note is “dose: 400.0 mg/kg/injection, schedule: Q01DX001 (ip), vehicle: gum acacia”, the survivor count is 0 of 6.
As to `C1=C(c2ccccc2)N=C(c2ccccc2)C2C(c3ccccc3)N2C1c1ccccc1` (stereo not given), the survivor count (dose: 400.0 mg/kg/injection, schedule: Q01DX001 (ip), vehicle: Klucel (hydroxypropylcellulose) (HPC)) was 3 of 3.
Regarding `Cc1cccc(Nc2cc(=O)[nH]c(=O)[nH]2)c1C`, the survivor count (dose: 75.0 mg/kg/injection, schedule: Q01DX001 (ip), vehicle: saline with Tween-80) is given as 6 of 6.
As for `CCOC(=O)Cn1c2ccccc2c2cc3c(C)nccc3c(C)c21`, the survivor count (dose: 300.0 mg/kg/injection, schedule: Q04DX003 (ip), vehicle: saline with Tween-80) was 5 of 10.
As to `C/C=C/C[P+](Cc1ccccc1)(c1ccccc1)c1ccccc1`, the survivor count (dose: 6.25 mg/kg/injection, schedule: Q01DX009 (ip), vehicle: saline with Tween-80) is 1 of 3; the survivor count (dose: 25.0 mg/kg/injection, schedule: Q01DX009 (ip), vehicle: saline with Tween-80) is reported as 0 of 3; the survivor count (dose: 50.0 mg/kg/injection, schedule: Q01DX009 (ip), vehicle: saline with Tween-80) is 0 of 3; the survivor count (dose: 100.0 mg/kg/injection, schedule: Q01DX009 (ip), vehicle: saline with Tween-80) is recorded as 0 of 3; the survivor count (dose: 200.0 mg/kg/injection, schedule: Q01DX009 (ip), vehicle: saline with Tween-80) was 0 of 3.
For `CCCCCCc1cc(N=Nc2ccc(S(=O)(=O)Nc3nnc(C)s3)cc2)c(O)cc1O`, the survivor count under setting [2] was 1 of 4.
Turning to `NC(=S)NN=C1CCN(Cc2ccccc2)CC1`, the survivor count reads like this: under setting [6], 0 of 4; under setting [7], 0 of 4.
For the compound `Cc1ccc(N2CCNCC2)cc1Cl`, the survivor count runs as follows: under setting [3], 6 of 6; under setting [4], 1 of 6.

The values above are taken from PubChem BioAssay AID248 (DTP/NCI, 2004).
